About 7,500 (2.1%) of roughly 360,000 compounds were called active. The inconclusive results got no clear call from the source; some entries with a clear call stand among them for comparison. Calls come from the whole dose curve; as a rule, active = well fitted inhibition curve with a large enough effect; inconclusive = small, poorly fitted or top-dose-only effect, or effect the other way; inactive = flat fitted curve, though single readings scatter. A potency beside an inconclusive call is a rough fit, not a confirmed value.
experiment: Nrf2 qHTS screen for inhibitors; settings: A549 ARE-Fluc reporter, luciferase luminescence, 18-24 h; activity change, negative = inhibition: at 46 µM (top of the series); note: nearly all actives have a fitted effect of over 60% in size
In short: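 Nrf2 function is reported as luminescence of an ARE-controlled luciferase in A549 cells. Compounds were tested at several concentrations, and a CellTiter-Fluor read on the same wells flagged cytotoxicity.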
% is set by controls: 0 for no effect and ±100 for the full control effect; potency is the fitted concentration of half-maximal effect.

Compound | Potency | activity change, negative = inhibition
CC(C)(CO)CNC(=O)CCc1nnc(Cc2ccc(-c3ccccc3)cc2)o1 | inconclusive: 16.4 µM [falling, partial curve, poor fit] | 
Oc1ccc(Br)cc1/C=N/n1c(COc2ccccc2)n[nH]c1=S |  | inactive: -1.68%
C[C@@H](C(=O)Nc1ccc2ccccc2c1)[C@H]1C[C@]1(C)[C@H](NC(=O)OCc1ccccc1)c1ccccc1 | inconclusive: 29.1 µM [falling, partial curve, poor fit] | 
Cc1ccc(C)c(NC(=O)CN(C)C(=O)C2CCN(C(=O)Nc3ccccc3)CC2)c1 |  | inactive: 2.85%
Cc1cccc(CN2CCC(C(=O)Nc3ccc(Oc4cccnc4)cc3)CC2)c1 |  | inactive: -4.71%
COc1ccc(Cl)cc1NC(=O)CSc1nc(N2CCOCC2)nc(N2CCOCC2)n1 | inconclusive: 29.1 µM [falling, single point] | 
O=C(COc1ccc2ccc(=O)oc2c1)NCCc1c[nH]c2ccc(F)cc12 | inconclusive: 16.4 µM [falling, single point] | 
Nc1ccccc1SCCS(=O)(=O)c1ccc(Cl)cc1 |  | inactive: 6.49%
COCC(=O)OC1CCn2c1nc1c2C(=O)C(C)=C(NC(C)=O)C1=O (stereo not given) | inconclusive: 29.1 µM [falling, single point] | 
CCOC(=O)c1csc(N)c1-c1ccc([N+](=O)[O-])cc1 | inconclusive: 29.1 µM [falling, single point] | 
Cc1ccccc1OCc1nc(-c2ccccc2)no1 | inconclusive: 23.1 µM [activator, partial curve] | 
Cc1cccc(NC(=S)N=Nc2c(O)n(CN3CCOCC3)c3ccccc23)c1C | inconclusive: 29.1 µM [falling, single point] | 
Cc1ccc(/C=C/C(=O)c2nc3ccccc3[nH]2)cc1 | inconclusive: 6.51 µM [falling, partial curve, poor fit] | 
Cc1cccc(N(Cc2cc3ccccc3[nH]c2=O)S(=O)(=O)c2ccccc2)c1 |  | inactive: 2.05%
Cc1ccc(CNc2ncnc3[nH]ncc23)o1 |  | inactive: 1.24%
CCC(C)NC(=O)C1CCN(S(=O)(=O)c2ccc3nc4c(c(C(=O)O)c3c2)CCCCC4)CC1 (stereo not given) | inconclusive: 2.59 µM [activator, partial curve, poor fit] | 
CCOC(=O)c1sc(=S)n(-c2ccccc2)c1N(C(C)=O)C(C)=O | inconclusive: 0.82 µM [activator, full curve, poor fit] | 
CCc1ccc(NC(=O)c2sc3nc(C)c(Cl)c(C)c3c2N)cc1 | active: 3.66 µM | 
O=C(Cn1c(-c2cccs2)cc2cc(Cl)ccc21)N1CCN(c2ccccc2)CC1 | inconclusive: 29.1 µM [activator, single point] | 
CC(C)n1c(C(F)(F)F)nc2cc(C(=O)N3CCC(O)CC3)ccc21 | inconclusive: 13 µM [activator, partial curve] | 
Nc1cccc(-c2cnc3ccccc3n2)c1 | inconclusive: 5.8 µM [activator, partial curve] | 
O=C(CN(Cc1ccccc1F)S(=O)(=O)c1ccc(Cl)cc1)NCCCO | inconclusive: 32.6 µM [falling, partial curve, poor fit] | 

No new results follow: an excerpt of the list.
Compound | Potency | activity change, negative = inhibition
COc1ccc(Cl)cc1NC(=O)CSc1nc(N2CCOCC2)nc(N2CCOCC2)n1 | inconclusive: 29.1 µM [falling, single point] | 
O=C(COc1ccc2ccc(=O)oc2c1)NCCc1c[nH]c2ccc(F)cc12 | inconclusive: 16.4 µM [falling, single point] | 

Going on with the list.

Compound | Potency | activity change, negative = inhibition
NNC(=O)CSCc1nc(-c2ccc(Cl)cc2)cs1 | inconclusive: 32.6 µM [activator, single point] | 
Cc1ccc(NC(=O)C2CCCN2S(=O)(=O)c2ccc3c(c2)CCCC(=O)N3)cc1C (stereo not given) | inconclusive: 25.9 µM [falling, partial curve, poor fit] | 
O=[N+]([O-])c1cccc(-c2cnc3ccccc3n2)c1 | inconclusive: 16.4 µM [activator, partial curve, poor fit] | 
Cc1ccccc1Nc1nc(N)nc(-c2oc3ccccc3c2C)n1 |  | inactive: 5.64%
O=C(CN1CCN(c2ccccc2)CC1)Nc1ccc(Oc2ccccc2)cc1 |  | inactive: -8.65%
O=C(NCc1ccccc1Cl)c1ccc2c(=O)n(CC3CCCO3)c(=S)[nH]c2c1 (stereo not given) | inconclusive: 29.1 µM [falling, single point] | 
C/C(=N\NC(=O)Cc1csc(N2CCOCC2)n1)c1ccccc1 | inconclusive: 20.6 µM [falling, partial curve, poor fit] | 
COc1ccc2nc(-c3ccc(N)cc3)[nH]c2c1 | inconclusive: 32.6 µM [falling, single point] | 
COc1ccccc1CNC(=O)CSc1ncc2c(n1)-c1ccc(Cl)cc1N(Cc1ccccc1)S2(=O)=O | inconclusive: 29.1 µM [activator, single point] | 
Cc1c(NC(=O)CSc2ccc3c(c2)OCCO3)c(=O)n(-c2ccccc2)n1C | inconclusive: 7.31 µM [activator, partial curve, poor fit] | 
Nc1nc(NCc2cccc(Cl)c2)c2[nH]cnc2n1 | inconclusive: 2.59 µM [activator, partial curve, poor fit] | 
CCc1ccc(NC(=S)N2CCN(c3cccc(OC)c3)CC2)cc1 |  | inactive: -22.4%
O=C(CN1CCOCC1)Nc1cc(Cl)ccc1Cl | inconclusive: 2.31 µM [falling, partial curve, poor fit] | 
CC(C)(C)c1ccc(OCCn2ccccc2=O)cc1 | inconclusive: 2.91 µM [activator, full curve, poor fit] | 
COc1cc(/C=C2\S/C(=N/S(=O)(=O)Cc3ccccc3)NC2=O)c([N+](=O)[O-])cc1OC | inconclusive: 25.9 µM [falling, single point] | 
Cc1ccc(NC(=O)COc2ccc(N(C)C(=O)C(C)(C)C)cc2)cc1S(=O)(=O)N1CCCCC1 | active: 3.66 µM | 
Cc1ccc2c(c1)[C@H]1[C@H](CO2)[C@H](c2ccccc2)[C@]2(C)C(=O)Nc3ccc(F)cc3C(=O)N12 | inconclusive: 32.6 µM [falling, partial curve, poor fit] | 
COc1ccc(-c2noc(-c3cccnc3NCc3ccco3)n2)cc1 |  | inactive: 21.9%
CCCCCCOc1ccc(/C=C/C(=O)N2CCOCC2)cc1OC | inconclusive: 0.82 µM [falling, full curve, poor fit] | 
O=S(=O)(Nc1ccc(-c2nc3cccnc3s2)cc1)c1ccccc1F | inconclusive: 18.4 µM [activator, single point] | 
CN(CC(=O)Nc1ccccc1Cl)C(=O)c1cccc(S(=O)(=O)N2CCN(c3ccccc3)CC2)c1 | active: 20.6 µM | 
COc1ccc(-c2onc(C)c2C)cc1S(=O)(=O)NCC1CCN(Cc2ccccc2F)CC1 | inconclusive: 11.6 µM [activator, partial curve, poor fit] | 

Individual results from the list:
O=[N+]([O-])c1cccc(-c2cnc3ccccc3n2)c1 – Potency: inconclusive: 16.4 µM [activator, partial curve, poor fit]
CN(CC(=O)Nc1ccccc1Cl)C(=O)c1cccc(S(=O)(=O)N2CCN(c3ccccc3)CC2)c1 – Potency: active: 20.6 µM
CCCCCCOc1ccc(/C=C/C(=O)N2CCOCC2)cc1OC – Potency: inconclusive: 0.82 µM [falling, full curve, poor fit]

The list goes on.

Compound | Potency | activity change, negative = inhibition
O=C(N/N=C/c1ccc2c(c1)OCO2)C1CC1 | inconclusive: 3.26 µM [activator, full curve] | 
CCCN(CCC)S(=O)(=O)c1ccc(C(=O)NCc2ccc3c(c2)OCO3)cc1 | inconclusive: 29.1 µM [falling, single point] | 
Cc1ccc(Oc2c(C(F)(F)F)oc3cc(OCC(=O)NC4CCCCC4)ccc3c2=O)cc1 |  | inactive: 8.16%
O=S1(=O)N=C(N2CCOCC2)c2ccccc21 | inconclusive: 29.1 µM [activator, partial curve, poor fit] | 
COc1ccc(/C=C\C(=O)Oc2cccc(/C=N/NC(=O)Cc3ccc(OC)c(OC)c3)c2)cc1 | inconclusive: 8.2 µM [activator, partial curve, poor fit] | 
O=C(NCCc1ccccc1)c1cc2sccc2n1Cc1ccccc1 | inconclusive: 6.51 µM [activator, single point] | 
COc1cc(CCC(=O)OCC(=O)Nc2ccccc2C(C)C)cc(OC)c1OC |  | inactive: 11.6%
O=C(CCCc1ccccc1)Nc1cccc(C(=O)O)c1 | inconclusive: 2.91 µM [activator, full curve] | 
Cc1cc(-n2c(SCC(=O)NCc3cccs3)nc3n[nH]c(C)c3c2=N)ccc1Cl | inconclusive: 14.6 µM [falling, partial curve, poor fit] | 
O=C(Nc1cc2c3c(c1)CC(=O)N3CCC2)c1ccc(Br)cc1 | inconclusive: 16.4 µM [falling, single point] | 
Cc1ccc(Cl)cc1N1CCN(C(=S)NCc2ccco2)CC1 | inconclusive: 29.1 µM [falling, single point] | 
COc1ccc(CCNC(=O)[C@H](C)N2C(=O)N3CCc4c([nH]c5ccccc45)[C@@]3(C)C2=O)cc1 | active: 14.6 µM | 
O=C(N/N=C(\c1ccccc1)c1cccnc1)c1cccc(F)c1 | active: 7.31 µM | 
O=C(Nc1nnc(-c2ccco2)s1)c1ccccc1 | inconclusive: 10.3 µM [activator, partial curve, poor fit] | 
CCc1ccc(-c2nc(CN3CCCC(C(=O)N4CCN(c5cc(Cl)ccc5C)CC4)C3)c(C)o2)cc1 (stereo not given) | inconclusive: 5.17 µM [falling, full curve, poor fit] | 
O=C1C2CC=CCC2C(=O)N1c1ccc(OCC(O)Cn2nnc3ccccc32)cc1 (stereo not given) | inconclusive: 29.1 µM [falling, single point] | 
Cc1ccc(NC(=O)COc2ccc(N(C)S(=O)(=O)c3ccc(F)cc3)cc2)cc1 | inconclusive: 29.1 µM [falling, single point] | 
CC(CNC(=O)Cn1ccc2cc(S(=O)(=O)N3CCCCCC3)ccc21)c1ccccc1 (stereo not given) | active: 20.6 µM | 
O=[N+]([O-])c1cccc(CNc2ccc3c(c2)CCC3)c1 |  | inactive: 7.51%
COc1ccc(/C=C/C(=O)Nc2c(C)nn(C)c2C)cc1COc1ccc(Cl)cc1Br | inconclusive: 1.46 µM [falling, full curve, poor fit] | 
O=C(Nc1ccon1)c1cc2c(s1)CCCC2 | inconclusive: 0.291 µM [activator, full curve, poor fit] | 
